Measurements: PubChem BioAssay AID328 (DTP/NCI, 2004)
The list does not hold the whole screen: it is rich in T/C values a quarter to a half above the control, in often repeated tests (any T/C) and in doses without a T/C. Further doses and runs are listed elsewhere. T/C is the treated group as % of the vehicle group. Some doses have a count of surviving animals in place of a T/C: the source files T/C as zero there, which appears to mark a toxic dose or a test without result, not a measured value. Some survivor counts are full or nearly so, which does not show that the dose was tolerated: survival well below the control is almost never listed, so the zero probably covers shortened survival too. Counts of survivors are from the toxicity check (mostly the fifth day) where no day follows; animals may have died later. Schedule codes are those of the source, taken here to give the interval after Q, in days (D) or hours (H), and the number of doses after X. Some entries hold several experiments; the results are listed from low to high. For survival time, this PubChem deposit counts one and a half times the control or more as active, and values a quarter to a half above the control carry no call in these data; other NCI protocols may use other cut-offs. Some T/C values are followed by the survivors on the day toxicity was checked, most often the fifth; without a count, all were alive then. Positions of bridges follow the written chain, without caps; N, C: chain ends. Non-standard residues stand in square brackets, D forms with d. Residues, ends and D or L forms follow the SMILES beside them. Pip(4-oxo) = O=C1CCN[CH](C(=O)O)C1; NMeV = CN[CH](C(=O)O)C(C)C; Sar = CNCC(=O)O

System: BDF1 mice, P388 leukemia ip, median survival T/C
Test: NCI In Vivo Anticancer Drug Screen. Data for tumor model P388 Leukemia (intraperitoneal) in B6D2F1 (BDF1) mice
Settings: T/C endpoint: median survival time, higher T/C = longer survival
Outline: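 Antitumour effect was judged in vivo: survival in drug-treated mice, normalised to that of vehicle-dosed controls, gives the reported T/C.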

[1] = dose: 200.0 mg/kg/injection, schedule: Q01DX009 (ip), vehicle: saline with Tween-80
[2] = dose: 400.0 mg/kg/injection, schedule: Q01DX009 (ip), vehicle: saline with Tween-80
[3] = dose: 900.0 micrograms/kg/injection, schedule: Q04DX003 (ip), vehicle: saline + alcohol
[4] = dose: 100.0 mg/kg/injection, schedule: Q04DX003 (ip), vehicle: saline with Tween-80
[5] = dose: 200.0 mg/kg/injection, schedule: Q04DX003 (ip), vehicle: saline with Tween-80
[6] = dose: 400.0 mg/kg/injection, schedule: Q04DX003 (ip), vehicle: saline with Tween-80
[7] = dose: 50.0 mg/kg/injection, schedule: Q01DX009 (ip), vehicle: saline with Tween-80
[8] = dose: 25.0 mg/kg/injection, schedule: Q01DX009 (ip), vehicle: Klucel (hydroxypropylcellulose) (HPC)

Structure (SMILES): O=C1NC(Cc2ccc(N(CCCl)CCCl)cc2)C(=O)O1 (configuration not stated)
- T/C (dose: 0.03 mg/kg/injection, schedule: Q01DX009 (ip), vehicle: saline with Tween-80): 129 % of control
- T/C (dose: 0.12 mg/kg/injection, schedule: Q01DX009 (ip), vehicle: saline with Tween-80): 125 % of control
- T/C (dose: 0.5 mg/kg/injection, schedule: Q01DX009 (ip), vehicle: saline with Tween-80): 146 % of control
- T/C (dose: 0.5 mg/kg/injection, schedule: Q04DX003 (ip), vehicle: saline with Tween-80): 131 % of control
- T/C (dose: 0.8 mg/kg/injection, schedule: Q04DX003 (ip), vehicle: saline with Tween-80): 133 % of control
- T/C (dose: 1.0 mg/kg/injection, schedule: Q01DX009 (ip), vehicle: saline with Tween-80): 146 % of control
- T/C (dose: 12.0 mg/kg/injection, schedule: Q04DX003 (ip), vehicle: saline with Tween-80): 154, 230, 250, 272 % of control
- survivor count (dose: 18.0 mg/kg/injection, schedule: Q01DX009 (ip), vehicle: saline with Tween-80): 6 of 6
- T/C (dose: 18.0 mg/kg/injection, schedule: Q04DX003 (ip), vehicle: saline with Tween-80): 100 [5 of 6 alive], 230, 250, 272 % of control
- survivor count (dose: 90.0 mg/kg/injection, schedule: Q04DX003 (ip), vehicle: saline with Tween-80): 6 of 6

Structure (SMILES): CCCCN(C)N=Nc1ccccc1C(N)=O
- survivor count [1]: 6 of 6
- survivor count [2]: 4 of 6

Structure (SMILES): CCOC(=O)CCN(CCN(C)C)c1cc(O)c2c(c1O)C(=O)c1ccccc1C2=O
- T/C (dose: 100.0 mg/kg/injection, schedule: Q01DX005 (ip), vehicle: saline with Tween-80): 138 % of control
- T/C (dose: 200.0 mg/kg/injection, schedule: Q01DX005 (ip), vehicle: saline with Tween-80): 148 % of control

Structure (SMILES): CCN1c2ccccc2CC(CCCN(C)C)(C(N)=O)c2ccccc21 (configuration not stated)
- survivor count (dose: 400.0 mg/kg/injection, schedule: Q01DX009 (ip), vehicle: saline): 0 of 6

Structure (SMILES): C/C=C1\C(=O)O[C@@]23C=C[C@H]4C(C(=O)OC)=CO[C@@H](O[C@H]12)[C@H]43
- T/C (dose: 1.25 mg/kg/injection, schedule: Q01DX009 (ip), vehicle: saline): 145 % of control [5 of 6 alive]
- T/C (dose: 5.0 mg/kg/injection, schedule: Q01DX009 (ip), vehicle: saline): 125 % of control
- survivor count (dose: 310.0 micrograms/kg/injection, schedule: Q01DX009 (ip), vehicle: Klucel (hydroxypropylcellulose) (HPC)): 2 of 3

Structure (SMILES): CC(C)C1NC(=O)C(N)C(C)OC(=O)C(C(C)C)N(C)C(=O)CN(C)C(=O)C2CC(=O)CCN2C1=O (configuration not stated) (tested in a mixture with another compound) (H-TV[Pip(4-oxo)][Sar][NMeV]; ester 1-C; configuration not given here)
- T/C (dose: 200.0 micrograms/kg/injection, schedule: Q01DX009 (ip), vehicle: saline + alcohol): 135 % of control
- T/C (dose: 450.0 micrograms/kg/injection, schedule: Q04DX003 (ip), vehicle: saline + alcohol): 132 and 139 % of control
- T/C [3]: 141 % of control
- survivor count [3]: 8 of 8

Structure (SMILES): Clc1ccc2c(c1)C(Br)c1cc(Cl)cc(Cl)c1-2 (configuration not stated)
- survivor count [4]: 6 of 6
- survivor count [2]: 5 of 6

Structure (SMILES): CCCCCCCCCCCCCCCCNC(C)c1ccccc1 (configuration not stated)
- survivor count (dose: 50.0 mg/kg/injection, schedule: Q04DX003 (ip), vehicle: saline with Tween-80): 5 of 6
- survivor count [4]: 5 of 6
- survivor count [5]: 2 of 6
- survivor count [6]: 0 of 6

Structure (SMILES): NOCc1csc(N)n1
- survivor count (dose: 150.0 mg/kg/injection, schedule: Q04DX003 (ip), vehicle: saline): 6 of 6

Structure (SMILES): O=C1C=CC(=O)N1c1ccc(Cl)cc1
- T/C (dose: 5.0 mg/kg/injection, schedule: Q01DX009 (ip), vehicle: Klucel (hydroxypropylcellulose) (HPC)): 145 % of control
- T/C (dose: 10.0 mg/kg/injection, schedule: Q01DX009 (ip), vehicle: Klucel (hydroxypropylcellulose) (HPC)): 129 and 140 % of control
- T/C (dose: 20.0 mg/kg/injection, schedule: Q01DX009 (ip), vehicle: Klucel (hydroxypropylcellulose) (HPC)): 137 % of control
- survivor count (dose: 40.0 mg/kg/injection, schedule: Q01DX009 (ip), vehicle: Klucel (hydroxypropylcellulose) (HPC)): 4 of 6
- survivor count (dose: 50.0 mg/kg/injection, schedule: Q04DX003 (ip), vehicle: Klucel (hydroxypropylcellulose) (HPC)): 1 of 6
- survivor count (dose: 100.0 mg/kg/injection, schedule: Q01DX009 (ip), vehicle: Klucel (hydroxypropylcellulose) (HPC)): 0 of 6
- survivor count (dose: 100.0 mg/kg/injection, schedule: Q04DX003 (ip), vehicle: Klucel (hydroxypropylcellulose) (HPC)): 0 of 6
- survivor count (dose: 200.0 mg/kg/injection, schedule: Q01DX009 (ip), vehicle: Klucel (hydroxypropylcellulose) (HPC)): 0 of 6
- survivor count (dose: 200.0 mg/kg/injection, schedule: Q04DX003 (ip), vehicle: Klucel (hydroxypropylcellulose) (HPC)): 0 of 6
- survivor count (dose: 400.0 mg/kg/injection, schedule: Q01DX009 (ip), vehicle: Klucel (hydroxypropylcellulose) (HPC)): 0 of 6
- survivor count (dose: 400.0 mg/kg/injection, schedule: Q04DX003 (ip), vehicle: Klucel (hydroxypropylcellulose) (HPC)): 1 of 6

Structure (SMILES): CC1=C(O)/C(=C/C(C)CCC/C(C)=C/CC/C(C)=C/CCc2ccoc2)OC1=O (configuration not stated)
- T/C (dose: 1.25 mg/kg/injection, schedule: Q01DX009 (ip), vehicle: saline with Tween-80): 131 % of control

Structure (SMILES): O=C(O)c1cc(N=Nc2ccccc2)ccc1O
- survivor count [5]: 6 of 6

Structure (SMILES): COC1=C(N=[N+]=[N-])C(=O)C(OC)=C(N=[N+]=[N-])C1=O
- survivor count (dose: 60.0 mg/kg/injection, schedule: Q04DX003 (ip), vehicle: saline): 3 of 6
- survivor count (dose: 135.0 mg/kg/injection, schedule: Q04DX003 (ip), vehicle: saline): 1 of 6

Structure (SMILES): O=C(O)CN(Cc1ccccc1)Sc1ccccc1[N+](=O)[O-]
- T/C (dose: 100.0 mg/kg/injection, schedule: Q04DX003 (ip), vehicle: other): 137 % of control

Structure (SMILES): NC(=O)NN=C1CSSC1
- survivor count (dose: 25.0 mg/kg/injection, schedule: Q01DX009 (ip), vehicle: saline with Tween-80): 0 of 6

Structure (SMILES): O=c1c2oc3ccccc3c2cnn1CO
- T/C [7]: 138 % of control

Structure (SMILES): Clc1c(Cl)c2c(Cl)c(Cl)c1C[P+](c1ccccc1)(c1ccccc1)CC[P+](c1ccccc1)(c1ccccc1)Cc1c(Cl)c(Cl)c(c(Cl)c1Cl)C[P+](c1ccccc1)(c1ccccc1)CC[P+](c1ccccc1)(c1ccccc1)C2
- survivor count [7]: 0 of 6
- survivor count (dose: 100.0 mg/kg/injection, schedule: Q01DX009 (ip), vehicle: saline with Tween-80): 0 of 6
- survivor count [1]: 0 of 6

Structure (SMILES): Cc1nc2ccccc2nc1CBr
- T/C (dose: 3.2 mg/kg/injection, schedule: Q01DX009 (ip), vehicle: Klucel (hydroxypropylcellulose) (HPC)): 133 % of control
- T/C (dose: 4.0 mg/kg/injection, schedule: Q01DX009 (ip), vehicle: saline with Tween-80): 127 % of control
- T/C (dose: 6.25 mg/kg/injection, schedule: Q01DX009 (ip), vehicle: saline with Tween-80): 145 % of control
- T/C (dose: 9.0 mg/kg/injection, schedule: Q01DX009 (ip), vehicle: saline with Tween-80): 127 % of control
- T/C (dose: 12.5 mg/kg/injection, schedule: Q01DX009 (ip), vehicle: Klucel (hydroxypropylcellulose) (HPC)): 144 % of control
- T/C (dose: 12.5 mg/kg/injection, schedule: Q01DX009 (ip), vehicle: saline with Tween-80): 127 % of control
- T/C [8]: 144 % of control
- survivor count [8]: 6 of 6
- survivor count (dose: 50.0 mg/kg/injection, schedule: Q01DX009 (ip), vehicle: Klucel (hydroxypropylcellulose) (HPC)): 0 of 6 and 4 of 6
- survivor count [4]: 2 of 6
- survivor count [5]: 0 of 6
- survivor count [6]: 0 of 6

Structure (SMILES): NC1CC[N-]CC1.NC1CC[N-]CC1.[Cl][Pt+2]([Cl])([Cl])[Cl]
- T/C (dose: 12.5 mg/kg/injection, schedule: Q01DX009 (ip), vehicle: saline): 127 % of control
- T/C (dose: 25.0 mg/kg/injection, schedule: Q01DX009 (ip), vehicle: saline): 127 % of control
- T/C (dose: 50.0 mg/kg/injection, schedule: Q01DX009 (ip), vehicle: saline): 135 % of control
- survivor count (dose: 100.0 mg/kg/injection, schedule: Q01DX009 (ip), vehicle: saline): 0 of 6

Structure (SMILES): S=c1sc(-c2ccccc2)c[se]1
- survivor count (dose: 100.0 mg/kg/injection, schedule: Q01DX009 (ip), vehicle: saline + Tween-80 + alcohol): 5 of 6
